Assay results: ChEMBL document CHEMBL4392822, “HSP60/10 chaperonin systems are inhibited by a variety of approved drugs, natural products, and known bioactive molecules” (Bioorg Med Chem Lett, 2019)

Target: T1, Thiosulfate sulfurtransferase (Homo sapiens, UniProt Q16762)
T1 sequence (Q16762 whole entry): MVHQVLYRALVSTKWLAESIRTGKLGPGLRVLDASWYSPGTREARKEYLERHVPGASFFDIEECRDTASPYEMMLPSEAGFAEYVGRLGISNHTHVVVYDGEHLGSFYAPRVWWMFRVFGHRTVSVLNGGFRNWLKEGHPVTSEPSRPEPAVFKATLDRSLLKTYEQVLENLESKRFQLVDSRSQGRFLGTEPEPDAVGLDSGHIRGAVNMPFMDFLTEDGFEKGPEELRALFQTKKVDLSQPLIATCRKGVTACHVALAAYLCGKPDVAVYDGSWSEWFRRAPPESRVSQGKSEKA
Type: ADME
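Note: native rhodanese of unspecified species, enzyme activity read after 45 min by spectrophotometric detection of Fe(SCN)3 colour, IC50 reflects activity reduction.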

SMILES: CCCCCCCCCCCCCCCC[n+]1ccccc1
- IC50: > 100 µM
